# Laboratory results published in PubChem BioAssay AID493014 (National Center for Advancing Translational Sciences (NCATS), 2011).
# The whole screen tested about 340,000 compounds, of which about 170 (0.05%) were called active. Inconclusive results, whose numbers are uncertain, are shown with a selection of clear calls. Calls follow the shape of the dose curve; as a rule, active = well fitted inhibition curve with a large enough effect in the signal ratio, with a control signal flat (not every such curve was filed as active); inconclusive = small, poorly fitted or top-dose-only effect, or effect the other way, or a change in a side signal; inactive = flat fitted curve, though single readings scatter; the % refers to the signal ratio. Potencies of inconclusive entries are doubtful fits and often do not repeat.
# Test: qHTS Assay to Find Inhibitors of Chronic Active B-Cell Receptor Signaling;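 as to activity change, negative = inhibition: plate controls were basal doxycycline-induced cells for no effect and cells given 10 µM MG132 for full effect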
# Details: ABC-DLBCL IkBa-CBG/CBR reporter, luminescence ratio (green luciferase fused to IkBa over red control in TMD8 lymphoma cells), 4 h; activity change, negative = inhibition: at 46.1 µM (top of the series)
# How it was run: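 Compounds up to 46 uM were incubated four hours with TMD8 cells whose green CBG68 luciferase is fused to IkappaBalpha; red CBR luminescence normalised the signal, and concentration-effect curves were fitted to fusion, red and ratio data.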
# Potency is read from the fitted curve at half-maximal effect.
SMILES,Potency,"activity change, negative = inhibition"
CCOC(=O)Cc1c(C)nc2cc(-c3ccc(Cl)cc3)[nH]n2c1=O,"inconclusive: 8.2 µM [falling, partial curve, poor fit]",–
O=C1C=C(c2cccc(Cl)c2O)C[C@@H](c2ccc(Cl)cc2)C1,"inconclusive: 20.6 µM [rising, partial curve, poor fit]",–
Cc1ccccc1NC(=O)c1nc[nH]c1C(=O)NCc1ccccc1,–,inconclusive: -0.574%
CCCc1cc(=O)c2c(O)ccc(OC)c2o1,–,inconclusive: 19.3%
COc1ccccc1NS(=O)(=O)c1cc(C(=O)NCC(c2ccco2)N2CCCCC2)ccc1C (configuration not stated),"inconclusive: 32.6 µM [falling, single point]",–
CC(=O)c1cc(C#N)c(SCc2ccccn2)nc1C,–,inconclusive: -4.26%
O=C(NN1C(=O)c2ccccc2NC1c1ccoc1)c1ccccc1 (configuration not stated),–,inconclusive: 4.63%
COc1ccc(-n2cnc(N)c2C(=O)c2cccc([N+](=O)[O-])c2)cc1,–,inconclusive: -4.43%
CC(=Nc1cccc(C)c1)c1sc2ccccc2c1O,–,inactive
Cc1ccc(NC(=O)Cc2ccc(-c3ccccc3)cc2)nc1,"inconclusive: 35.5 µM [rising, partial curve, poor fit]",–
CCn1c(SCC(=O)Nc2ccccc2C)nc2nc3c(cc2c1=O)COC(C)(C)C3,–,inactive
COc1cc(-c2nnc(SCc3ccccc3Cl)o2)cc(OC)c1OC,"inconclusive: 32.6 µM [falling, partial curve, poor fit]",–
CCOC(=O)c1cc(-c2ccccc2)n(CCCC(=O)Nc2ccc(C)c(Cl)c2)c1C,–,inactive
COc1cccc2oc3cc(C#Cc4ccccn4)ccc3c(=O)c12,–,inconclusive: -27%
COc1ccc(C(=O)NCC(=O)OCc2ccc(Br)cc2)cc1,–,inconclusive: 22.3%
COc1ccc(S(=O)(=O)N2CCN(c3ncccn3)CC2)cc1OC,–,inactive
COc1ccc(-c2nnc(SCc3ccccn3)n2C)cc1,–,inactive
CCn1c(SCC(=O)Nc2nnc(C)s2)nc2c(c1=O)SC(C)C2 (configuration not stated),–,inconclusive: -0.597%
CSc1nnc(-c2sccc2-n2cccc2)o1,–,inconclusive: 4.36%
CC1CCN(c2ccc(C(=O)NCCc3ccccc3)cn2)CC1,–,inconclusive: 5.46%
COc1ccc(C(=O)NCC(=O)NCC(=O)OCc2ccc(Cl)cc2)cc1,–,inconclusive: 2.8%
O=C(Nc1cc(Sc2ccccn2)cc([N+](=O)[O-])c1)c1cccc(F)c1,"inconclusive: 8.2 µM [rising, partial curve, poor fit]",–
COc1coc(C(O)CN)cc1=O (configuration not stated),–,inconclusive: 2.77%
O=C(NNC(=O)c1cc(-c2ccco2)nc2ccccc12)c1ccccc1,–,inactive
CN(CC(=O)Nc1cccc(F)c1)C(=O)c1cccc(S(=O)(=O)N2CC3(C)CC2CC(C)(C)C3)c1 (configuration not stated),–,inconclusive: 13.8%
O=C(CCCN1CCN(c2ccccn2)CC1)c1ccc(F)cc1,–,inactive

# By substructure: the compounds so far containing a halogen (9)
SMILES,Potency,"activity change, negative = inhibition"
CCOC(=O)Cc1c(C)nc2cc(-c3ccc(Cl)cc3)[nH]n2c1=O,"inconclusive: 8.2 µM [falling, partial curve, poor fit]",–
O=C1C=C(c2cccc(Cl)c2O)C[C@@H](c2ccc(Cl)cc2)C1,"inconclusive: 20.6 µM [rising, partial curve, poor fit]",–
COc1cc(-c2nnc(SCc3ccccc3Cl)o2)cc(OC)c1OC,"inconclusive: 32.6 µM [falling, partial curve, poor fit]",–
CCOC(=O)c1cc(-c2ccccc2)n(CCCC(=O)Nc2ccc(C)c(Cl)c2)c1C,–,inactive
COc1ccc(C(=O)NCC(=O)OCc2ccc(Br)cc2)cc1,–,inconclusive: 22.3%
COc1ccc(C(=O)NCC(=O)NCC(=O)OCc2ccc(Cl)cc2)cc1,–,inconclusive: 2.8%
O=C(Nc1cc(Sc2ccccn2)cc([N+](=O)[O-])c1)c1cccc(F)c1,"inconclusive: 8.2 µM [rising, partial curve, poor fit]",–
CN(CC(=O)Nc1cccc(F)c1)C(=O)c1cccc(S(=O)(=O)N2CC3(C)CC2CC(C)(C)C3)c1 (configuration not stated),–,inconclusive: 13.8%
O=C(CCCN1CCN(c2ccccn2)CC1)c1ccc(F)cc1,–,inactive

# Another view of some results above:
SMILES	Potency	activity change, negative = inhibition
CCOC(=O)Cc1c(C)nc2cc(-c3ccc(Cl)cc3)[nH]n2c1=O	inconclusive: 8.2 µM [falling, partial curve, poor fit]	–
CSc1nnc(-c2sccc2-n2cccc2)o1	–	inconclusive: 4.36%

# The results go on:

SMILES,Potency,"activity change, negative = inhibition"
COc1cccc(C(=O)Nc2ccc(NC(=O)c3ccco3)c(Cl)c2)c1,"inconclusive: 11.2 µM [falling, partial curve]",–
Cc1cccc(N2CCN(C(=O)c3ccc(NC4=NC5CS(=O)(=O)CC5S4)cc3)CC2C)c1 (configuration not stated),–,inactive
O=C(NNC(=O)c1ccc(S(=O)(=O)N2CCOCC2)cc1)c1ccccc1,–,inactive
COc1ccc(C2CC(O)(c3ccccc3)Oc3cc(OC)cc(OC)c32)cc1 (configuration not stated),–,inconclusive: 8.19%
COc1ccc(C(=O)Oc2cc(OC)cc(OC)c2C(C)=O)cc1,–,inconclusive: 3.87%
O=C(Nc1nc2ccccc2[nH]1)c1ccc(F)c(S(=O)(=O)N2CCOCC2)c1,–,inconclusive: -9.61%
COc1cccc(Cn2nnc(C(=O)NCc3ccccc3Cl)c2N)c1,"inconclusive: 3.66 µM [falling, partial curve, poor fit]",–
O=C(O)c1ccc(O)c(N2C(=O)Nc3ccccc3N2O)c1,–,inconclusive: -19.4%
O=C(Nc1cccc(-n2cnnn2)c1)C1CCCN(Cc2cccc(C(F)(F)F)c2)C1 (configuration not stated),"inconclusive: 11.2 µM [falling, partial curve, poor fit]",–
Cc1cc(OCC(=O)OC(C)C(=O)Nc2ccc(N3CCOCC3)cc2)ccc1Cl (configuration not stated),–,inconclusive: 3.34%
Cc1c(C(=O)N2CCOCC2)oc2ccc(Br)cc12,–,inconclusive: 3.67%
COc1ccccc1-n1cnc2cc(NCc3ccco3)ccc21,"inconclusive: 31.6 µM [cytotoxic, single point]",–
Cc1c(C(=O)Nc2ccccn2)sc2nc3n(c(=O)c12)CCC3,–,inconclusive: -29%
CN(C)c1cc(N/N=C\c2ccccc2)nc(N(C)C)n1,"inconclusive: 12.6 µM [rising, partial curve, poor fit]",–
CCCC(C)NC(=O)c1ccc(C2SCC(=O)N2Cc2ccco2)cc1 (configuration not stated),–,inconclusive: -17.4%
CC(C)[C@@H](C(=O)NC1CC1)N1C(=O)N2CCc3c([nH]c4ccccc34)[C@@]2(C)C1=O,"inconclusive: 12.6 µM [falling, partial curve, poor fit]",–
c1ccc2[nH]c(SCc3cscn3)nc2c1,–,inconclusive: 12.4%
COc1cc(C(=O)Nc2ccc3nc4n(c(=O)c3c2)CCCCC4)cc(OC)c1OC,–,inconclusive: 3.17%
CCOC(=O)c1ccoc1CSCc1ccc(C(=O)OC)o1,–,inconclusive: 1.13%
O=C1CCCN1c1ccc(Br)cc1,–,inconclusive: 11.8%
CCOC(=O)CNS(=O)(=O)c1c(C)noc1C,–,inconclusive: 1.75%
CCN(CC)C1CCN(C(=O)c2cc(COc3ccccc3SC)on2)C1 (configuration not stated),–,inconclusive: 11.8%
CCN(CC)S(=O)(=O)c1ccc2c(c1)N(CC(=O)N1CCN(c3cccc(C)c3)C(C)C1)C(=O)CO2 (configuration not stated),–,inactive
COc1ccc(O)c(CNc2ccccc2F)c1,–,inconclusive: -10.5%
CC(=O)Nc1cccc(-c2nnc(SCC(=O)n3c4c(c5ccccc53)CCCC4)n2C)c1,–,inconclusive: -8.8%
Cc1cc(NC(=O)c2ccccc2)ccc1NC(=O)c1ccccc1Cl,–,inconclusive: -14%
